From patent US10954244B2, “Compounds and uses thereof” (Kala Pharmaceuticals, Inc., priority 2013, dated 2021)
At least one structure is not confirmed: it was looked up by name or label, or the drawing left a doubt.

Assay: Physical and chemical stability of I-2 solutions at room temperature
Type: physicochemical
Settings: for API % (w/v) at t = tfinal: room temperature, filtrate
Method: Solutions of I-2 were formulated with F127 or Tween 80, and under a range of pH values. Briefly, I-2 was first completely solubilized using an acidic solution (0.1 N HCl) at a high concentration of ˜5% (w/v). The final formulation was diluted to a solution consisting of 0.5% (w/v) I-2 into buffered solution containing F127 or Tween 80 as described in Table 5. Following dilution, the pH of the formulations was measured using pH indicator strips (PEHANON) and confirmed to be within expected range (±0.5 units of target pH).
Physical and chemical stability of the solutions at room temperature (20-25° C.) were assessed after 7-10 days (tfinal). Physical instability in a solution can manifest as the precipitation and sedimentation of the drug of interest and excipients over time. To assess physical stability, the formulations at tfinal were first filtered through a 300 kDa modified polyethersulfone filter membrane (Nanosep) to remove any precipitate in the solution. The concentration of I-2 in the filtrates was then measured and compared to that at t=0. The purity of I-2 in the unfiltered solution was also evaluated at tfinal, to further confirm chemical stability. This parameter is defined by the area under the signal peak that is attributed to compound I-2 as a percentage of all peaks reported by in the sample by HPLC (% peak area).

[1] = F127 (0.5%), 20 mM Borate, target pH 8, 7 days
[2] = F127 (0.5%), 20 mM Citrate, target pH 6, 7 days
[3] = F127 (0.5%), 40 mM Borate, target pH 8, 7 days
[4] = F127 (0.5%), 1× PBS, target pH 7, 7 days
[5] = Tween 80 (0.5%), 20 mM Citrate, target pH 6, 10 days

In the case of `Cc1cc(C(=O)Nc2cc(Oc3ccc4nc(NC(=O)CN5CC[C@H](N(C)C)C5)cn4n3)ccc2C)n(C)n1` [Compound I-2], the “% concentration change” value [1] is reported as −5.6%, the “API % (w/v) at t = tfinal” value [1] is reported as 0.51 % (w/v) and the “% concentration change” value [2] is reported as −3.8%. For the same compound, the “API % peak area at t = tfinal” value (F127 (0.5%), 20 mM Citrate, target pH 6, 7 days, HPLC) was 98.0 % peak area, the “API % (w/v) at t = tfinal” value [2] was 0.50 % (w/v) and the “% concentration change” value [3] was 0.0%. The “API % (w/v) at t = tfinal” value [3] was 0.52 % (w/v), the “API % (w/v) at t = 0” value (F127 (0.5%), 1× PBS, target pH 7) was 0.52 % (w/v) and the “% concentration change” value [4] was −1.9%. The “API % (w/v) at t = tfinal” value [4] was 0.51 % (w/v), the “% concentration change” value [5] was −2.2% and the “API % (w/v) at t = tfinal” value [5] was 0.44 % (w/v). For the same compound, the “concentration of I-2 maintained, of original concentration at t=0” value (all formulations other than 20 mM Tris, 7-10 days storage at room temperature) was greater than 94%.
